In patent publication US20220241382A1:
Results are given in words; binding and its absence hold for the method and conditions named. Binding seen in cells or lysates may run through a third protein. Some entries that bind do so weakly or less than the wild type.

Amino acid sequences for entries named in this document (tags omitted). A change or cut given only in a name is not applied to a line headed by its entry.
UniProt P23804: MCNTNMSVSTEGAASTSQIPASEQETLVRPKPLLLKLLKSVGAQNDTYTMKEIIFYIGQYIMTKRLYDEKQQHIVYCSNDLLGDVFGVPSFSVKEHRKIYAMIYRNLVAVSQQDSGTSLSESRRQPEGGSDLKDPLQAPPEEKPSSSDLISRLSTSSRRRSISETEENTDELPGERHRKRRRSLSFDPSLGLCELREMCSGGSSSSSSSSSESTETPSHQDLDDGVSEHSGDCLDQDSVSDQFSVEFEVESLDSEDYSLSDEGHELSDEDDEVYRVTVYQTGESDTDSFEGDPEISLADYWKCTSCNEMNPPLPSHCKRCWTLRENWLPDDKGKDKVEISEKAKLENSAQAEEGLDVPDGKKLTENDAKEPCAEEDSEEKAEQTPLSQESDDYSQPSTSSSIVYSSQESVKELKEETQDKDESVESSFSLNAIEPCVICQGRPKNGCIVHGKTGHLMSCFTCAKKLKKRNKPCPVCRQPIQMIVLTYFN
UniProt Q61846: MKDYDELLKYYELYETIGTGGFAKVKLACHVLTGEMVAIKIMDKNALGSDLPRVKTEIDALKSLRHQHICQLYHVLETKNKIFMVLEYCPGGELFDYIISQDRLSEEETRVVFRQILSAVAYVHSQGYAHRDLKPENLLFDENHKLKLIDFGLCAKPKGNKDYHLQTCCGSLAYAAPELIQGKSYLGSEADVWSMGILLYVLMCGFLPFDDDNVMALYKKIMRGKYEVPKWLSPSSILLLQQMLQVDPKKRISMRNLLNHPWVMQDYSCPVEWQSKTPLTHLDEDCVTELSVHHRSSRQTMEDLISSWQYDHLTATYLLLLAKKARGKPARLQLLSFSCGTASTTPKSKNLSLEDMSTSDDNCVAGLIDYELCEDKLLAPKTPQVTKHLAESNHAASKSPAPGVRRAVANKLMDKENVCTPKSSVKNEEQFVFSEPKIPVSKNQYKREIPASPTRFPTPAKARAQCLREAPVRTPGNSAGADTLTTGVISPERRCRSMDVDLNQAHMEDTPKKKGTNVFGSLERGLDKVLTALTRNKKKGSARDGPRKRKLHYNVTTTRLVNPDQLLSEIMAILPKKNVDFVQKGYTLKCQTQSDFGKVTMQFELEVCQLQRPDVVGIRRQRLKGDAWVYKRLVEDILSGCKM

Legend:
Trx (mouse) = biological target: T1, Trx (mouse) (UniProt P10639); assay: co-immunoprecipitation (IP anti-MPK38, immunoblot anti-Trx), mouse adipocyte lysate
T1 sequence (looked up): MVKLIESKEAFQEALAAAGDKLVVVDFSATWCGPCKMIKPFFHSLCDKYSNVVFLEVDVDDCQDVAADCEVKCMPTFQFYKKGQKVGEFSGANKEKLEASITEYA

ZPR9 (mouse) = biological target: T2, ZPR9 (mouse) (UniProt Q91VY9); assay: co-immunoprecipitation (IP anti-MPK38, immunoblot anti-ZPR9), mouse adipocyte lysate
T2 sequence (looked up): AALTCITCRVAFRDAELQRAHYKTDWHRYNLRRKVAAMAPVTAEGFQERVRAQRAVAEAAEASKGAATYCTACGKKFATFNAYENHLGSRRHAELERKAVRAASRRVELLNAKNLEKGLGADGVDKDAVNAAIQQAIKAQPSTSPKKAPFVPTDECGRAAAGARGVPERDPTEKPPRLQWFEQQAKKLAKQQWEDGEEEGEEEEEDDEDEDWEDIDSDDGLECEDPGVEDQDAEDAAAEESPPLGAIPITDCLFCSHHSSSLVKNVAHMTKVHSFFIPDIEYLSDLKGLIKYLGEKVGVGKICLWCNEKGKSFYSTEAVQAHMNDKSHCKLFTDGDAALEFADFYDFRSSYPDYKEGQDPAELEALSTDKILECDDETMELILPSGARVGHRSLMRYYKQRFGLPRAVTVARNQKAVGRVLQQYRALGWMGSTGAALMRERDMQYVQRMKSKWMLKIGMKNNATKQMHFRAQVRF

Mdm2 (mouse) = Mdm2 (mouse) (UniProt P23804); assay: co-immunoprecipitation (IP anti-MPK38, immunoblot anti-Mdm2), mouse adipocyte lysate

Measured: binding

murine protein serine-threonine kinase 38 (MPK38) (from UniProt Q61846 1-643) (enzyme)
binds: Trx (mouse) | ZPR9 (mouse) | Mdm2 (mouse)
